Out of some 53,000 sequences screened, about 3,700 (7%) were called active.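 Rule for the calls: active = gene knockdowns whose robust z-score for IL-1 alpha signal is at least 2 or at most -2, so actives lie on both sides; inactive = the rest.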 This is one part of the list.
Assay: Components of the Cytosolic LPS Sensing Pathway: Gene Identification via Genome-wide siRNA Screen;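 note: robust z of the log signal after scaling to non-targeting control siRNA wells of the plate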
Conditions: RAW264.7 macrophages, IL-1a HTRF, actives lie on both sides, screened at 100 nM (by protocol), cells primed 5 h with Pam3CSK4 first
In short: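 Read-out: IL-1a HTRF on supernatant, divided by plate negative-control median ×100, log-transformed and converted to robust z-score. Cells were RAW264.7 given 100 nM siRNA, Pam3CSK4-primed 5 hours, then LipidA-transfected 24 hour.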

z-score, inactive:
GGGAUCUAAAGGCUGAAAATT against Mark4 -0.291
GGAGUUGGAUAUUCUAAAATT against B3gntl1 -0.64
GCUAUUAAAGAGGUAGUCATT against Lancl2 -0.479
GGCUCUGCUCCUUCAAUGUTT against Dnase1l3 -0.798
GGCAGCAGUUAUUGUGGAUTT against Ly6a 0.693
GCACUGUGGGUGUUUUUAGTT against E130309D02Rik -0.198
GGUUAAAAAGGAUUUCAGCTT against Tcp11l2 0.0471
GCUAUGUGACCAGAACGAGTT against Tsc2 0.194
GGCAAACUGUCUCUUCAGATT against Pim1 -0.131
GGAGUCAGUCCAGAUUCUGTT against Tgif1 -1.09
GCGUAUCAAGUUCUCUAGGTT against Mical1 1.84
GGUGGGACUUGAUUUUUCUTT against Lrrfip1 0.815
GGGCUAUGUUGUCUCAAAATT against Gsdma2 0.861
GGUGAACCACGAGAAGAGUTT against Hk1 -0.0371
GGAACACUUCAUCAGUCAGTT against Chrnb3 -1.06
CCUUCGAGUACACCUUGCUTT against Adamtsl2 -1.21
GGAAGAAAAGUAUUACAGCTT against Itgb3bp -0.34
GGAGAGGCUUUUCAUUGAUTT against Dnaaf1 0.819
GCACUAAACGUGAAGGAGUTT against Npl -0.334
GCUGUUACCUCCAAGAGUCTT against Cenpx -1.89
GGAUUAUUAGCACUGCUAGTT against Oaz2 0.861
GGAUGAUUCAGAUGAAGAUTT against Zcchc18 -0.662
GGAUGUUCUUGCUCAUGUGTT against Fam149b 0.605
GGAGAACACUGAGGAAAAGTT against Olfr917 0.38
GGGAUUGGCGGGUUUUGAUTT against 9330175E14Rik -1.11
GGCUGAAAAACCUUCAGCATT against Sparcl1 0.507
GGACUGGUUCAUCCUUGUGTT against G6pc 0.922
GCGAUGGAACUGUACGAGATT against Mdp1 0.244
GGAGAAGACGGCUAAGCUCTT against Gramd1a 0.0128
GCUUGAGCUCAUGGUCACUTT against Olfr1309 0.572
GGAGAUCGACAGAGAAGCATT against Pcdh20 -1.13
GCGUGCCCAACAUUAUCAUTT against 1190005I06Rik -0.314
GGCUGUUUCCAAAAAGAAGTT against H1f5 -1.14
CAUGGACUCUAAGUAUAAUTT against Olfr1372-ps1 -0.38
CCUGCAGCUGUAAAACCUGTT against Mt4 0.902
GGUACUCGGAUUUGAUUAATT against Myo6 0.403
GGCUCACAAUAUUGUAUACTT against Ndufa5 -0.436
GUGAACCACACUGUCUGAGTT against Tmem37 1.26
GGACCUGCUUGAACAUUACTT against Sh2d2a -1.21
GGAGCUUCUUUUUUGUUUATT against Myog 0.492
CAGCUUCUCAUAAAUCUUCTT against Olfr1385 -0.878
GCUUAUCACUUCAGAUAUCTT against Bmp2k 1.49
GCUUCGACAUUGUUAGUUATT against Ammecr1 0.322
GCAGAUAUUCUCUGUGCAGTT against Ccnf -0.607
GGAAAAGUGGAAUCAGAUUTT against Uty -0.672
GGCCAUCAUUUUCACAACUTT against Gk5 -0.114
GGUUUUUCUAAGAGAACGGTT against Rnft1 -0.558
GGUGGAUUCUAUUAAAUGCTT against Gm14461 0.462
CGCGUACAGAAGCAGUUAGTT against Cep170b 1.84
GGAAGAUGAUUAUGAAGAUTT against Apc -0.143
CGAAAUGGGAUUAAAACAATT against Fam181b 0.19
GGUGACUCAUAUUCGGAUCTT against Ptpn6 1.44
GGAGAAAUGAAGGUAUACATT against Cert1 -1.12
GGACAGUGUUUUUUGUAGUTT against Pdcd4 -0.809
GGUUUGAGAAAUGACUUAATT against Naa15 0.328
GCCAUUAAGAUCGCUUACUTT against Selenop -0.432
GCUCUUGUAUGUUCUGCUGTT against Tmem86b -0.311
CGCAAUGCUGGAUUAUUUATT against Ceacam2 0.628
GGAGAAUCUGGUCUGGGUATT against Septin4 1.04
CGGGAUAUCAUUCUCCAUATT against Lnpep 0.62
GGAAUGAAAUCUCUGCAUGTT against Zfand5 0.574
GUGUGCUGUCCUCAGUAGATT against Olfr1086 -0.725
GGCCUUUAAUUUCUUACACTT against Akt1s1 -0.6
GGAAUAUUGGUUGUGAUGATT against Ralb -0.197
GGCAGUGUAUCACAACGUGTT against Commd10 0.591
CCACUAUGUUCUCUGGAUATT against Llgl1 -0.218
GGAGACCUAAAAUGUCUUUTT against Klrb1b 0.6
GCGUGGAGUCUUCAGUCAUTT against Vhl -0.101
GGAGAUUGGAAAAACCAAATT against Zfp74 0.495
GGAGACAGAAAAGAAGUUGTT against Gpr108 -0.119
GGAGCAGGAAUCAUUGACGTT against Chil3 0.922
CCGAGUCUCUUAGAAUAAUTT against Tfcp2l1 1.27
GGCGAAUCUUUCCAACGCGTT against Marco 0.443
GGCAGGAUCUUUACAUCUCTT against Krtap31-1 0.796
AGUACACUUGCUCCUUCUGTT against Rpl37a -0.0364
GGUGACGAAACUCCUAAAATT against Hars 0.0366
GCUUUACGUCAGGAGAUAATT against Pak3 0.0681
GGCGGAACAAGAUGACUCATT against Arnt2 0.819
GGAAGUGUCUUAGCACCCATT against Zfp330 0.53
GGUGCCUGUAUAUCUCCAATT against Aadacl4fm1 0.251
GGUCAUCGGACAUUAUUUATT against Slc4a10 -0.903
GGUACAAUCUUAUCUGUGGTT against Dsg1a -0.701
GGCCCUUUCUGUCACUUAGTT against Myl12b 0.269
CCUGGUCAAUCGAUUCAUATT against 5330416C01Rik -0.12
GCCUCUCCUAUCCCAAUUATT against Enpp6 -1.21
GGUCCCUGAGGAUUUCAUCTT against Nprl2 1.31
GGAAUCGCUGUUAUAGUUATT against Spast 0.26
GGAAUGUGUAUUCCAAAAUTT against Gp2 0.309
CCCAUCACUUUAACCAAAGTT against Dhrs7c -1.36
GGAAGAGGUUUUAUCAGAATT against Atpaf2 -0.194
GGACUAACCAGAAUUUUCATT against Kcnc2 0.595

z-score, active:
GGAAGAAAUAGAGUUUUACTT against Ephx2 3.42
GGUCCAGAGAAGGCAAGCUTT against Elf3 5.87
GGCUGAAGCUCGACUGAAGTT against Abcf3 2.35
GGCUCCUGGUUCUACAUCCTT against Itpr2 -2.54
GGCACAGAGAUUGAAGAUCTT against Sry 2.04
GGCUCUAACUAUUAUGUGCTT against Psmc4 -2.9
GGAAAAGUCCCGUAUGGAGTT against Gcc1 -3.14
GGAUUUGAGCGAUAUGAGCTT against Tex12 -3.29
GGGAAUUCUCCUGUUUGCUTT against Plp2 -2.22
CCCUAACUUAAUAAAACCUTT against Triobp -2.41
GGACUAGUGUGAAAAAGGATT against Nsd1 -2.87
GCUACAUACCCAAAUACAUTT against Trpc4ap 2.1
GGGUCUCUUGUGGUACAUCTT against Cln3 3.41
GCCUCCUAUCCUGGGAAGATT against Prss3 2.54
GCAGUAGUCUUGGAAUUAATT against Bhlhe41 2.15
GGAUGCAGAGAAGAAUCUGTT against Psmd6 -2.65

A portion of the results above, as a working copy:
z-score, active:
GGAAAAGUCCCGUAUGGAGTT against Gcc1 -3.14
GGAUUUGAGCGAUAUGAGCTT against Tex12 -3.29

Two records drawn at random from the list so far:
z-score, active:
GGACUAGUGUGAAAAAGGATT against Nsd1 -2.87
GCUACAUACCCAAAUACAUTT against Trpc4ap 2.1
